In patent publication US20180371107A1 (published 2018):
No constants are given. Whether binding was seen depends on the method and setting. Some binding calls cover weakened binding; strength is not graded here.

Biological target: T1, mouse NSP4 (mNSP4), form not stated in Example 6 (mouse) (UniProt Q14B24)
T1 sequence (looked up): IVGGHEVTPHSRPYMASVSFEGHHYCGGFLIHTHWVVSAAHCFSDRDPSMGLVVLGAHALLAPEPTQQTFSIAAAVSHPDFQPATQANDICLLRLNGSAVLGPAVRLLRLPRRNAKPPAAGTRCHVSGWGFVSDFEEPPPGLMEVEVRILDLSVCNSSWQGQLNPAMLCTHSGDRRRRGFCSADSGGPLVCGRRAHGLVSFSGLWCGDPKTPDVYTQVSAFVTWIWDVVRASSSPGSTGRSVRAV
Assay: BLI: mouse NSP4 preincubated with Fab 5-1 as competitor

binding: binds
B1: Fab 5-1 (NSP4 antibody 5-1, Fab format) (Fab, V domains shown)
VH: EVQLVESGGGLVQPGGSLRLSCAASGFTFSGSGIHWVRQAPGKGLEWVAWISPTGGNTYYADSVKGRFTISADTSKNTAYLQMNSLRAEDTAVYYCAKSLFHNVAFDYWGQGTLVTVSS
VL: DIQMTQSPSSLSASVGDRVTITCRASQDVSTAVAWYQQKPGKAPKLLIYSASFLYSGVPSRFSGSGSGTDFTLTISSLQPEDFATYYCQQSYTTPPTFGQGTKVEIKR
